Experimental data reported in publication doi:10.1101/2025.07.08.663435 (bioRxiv, 2025).
These are yes or no findings as the source states them, for the method shown. Binding seen in cells or lysates may run through a third protein. Some binding calls cover weakened binding; strength is not graded here. Where a sequence is shown, tags or fusion partners need not be part of it.

Chains of the proteins cited; added tags and fusions are not shown.
UniProt A6NHR9: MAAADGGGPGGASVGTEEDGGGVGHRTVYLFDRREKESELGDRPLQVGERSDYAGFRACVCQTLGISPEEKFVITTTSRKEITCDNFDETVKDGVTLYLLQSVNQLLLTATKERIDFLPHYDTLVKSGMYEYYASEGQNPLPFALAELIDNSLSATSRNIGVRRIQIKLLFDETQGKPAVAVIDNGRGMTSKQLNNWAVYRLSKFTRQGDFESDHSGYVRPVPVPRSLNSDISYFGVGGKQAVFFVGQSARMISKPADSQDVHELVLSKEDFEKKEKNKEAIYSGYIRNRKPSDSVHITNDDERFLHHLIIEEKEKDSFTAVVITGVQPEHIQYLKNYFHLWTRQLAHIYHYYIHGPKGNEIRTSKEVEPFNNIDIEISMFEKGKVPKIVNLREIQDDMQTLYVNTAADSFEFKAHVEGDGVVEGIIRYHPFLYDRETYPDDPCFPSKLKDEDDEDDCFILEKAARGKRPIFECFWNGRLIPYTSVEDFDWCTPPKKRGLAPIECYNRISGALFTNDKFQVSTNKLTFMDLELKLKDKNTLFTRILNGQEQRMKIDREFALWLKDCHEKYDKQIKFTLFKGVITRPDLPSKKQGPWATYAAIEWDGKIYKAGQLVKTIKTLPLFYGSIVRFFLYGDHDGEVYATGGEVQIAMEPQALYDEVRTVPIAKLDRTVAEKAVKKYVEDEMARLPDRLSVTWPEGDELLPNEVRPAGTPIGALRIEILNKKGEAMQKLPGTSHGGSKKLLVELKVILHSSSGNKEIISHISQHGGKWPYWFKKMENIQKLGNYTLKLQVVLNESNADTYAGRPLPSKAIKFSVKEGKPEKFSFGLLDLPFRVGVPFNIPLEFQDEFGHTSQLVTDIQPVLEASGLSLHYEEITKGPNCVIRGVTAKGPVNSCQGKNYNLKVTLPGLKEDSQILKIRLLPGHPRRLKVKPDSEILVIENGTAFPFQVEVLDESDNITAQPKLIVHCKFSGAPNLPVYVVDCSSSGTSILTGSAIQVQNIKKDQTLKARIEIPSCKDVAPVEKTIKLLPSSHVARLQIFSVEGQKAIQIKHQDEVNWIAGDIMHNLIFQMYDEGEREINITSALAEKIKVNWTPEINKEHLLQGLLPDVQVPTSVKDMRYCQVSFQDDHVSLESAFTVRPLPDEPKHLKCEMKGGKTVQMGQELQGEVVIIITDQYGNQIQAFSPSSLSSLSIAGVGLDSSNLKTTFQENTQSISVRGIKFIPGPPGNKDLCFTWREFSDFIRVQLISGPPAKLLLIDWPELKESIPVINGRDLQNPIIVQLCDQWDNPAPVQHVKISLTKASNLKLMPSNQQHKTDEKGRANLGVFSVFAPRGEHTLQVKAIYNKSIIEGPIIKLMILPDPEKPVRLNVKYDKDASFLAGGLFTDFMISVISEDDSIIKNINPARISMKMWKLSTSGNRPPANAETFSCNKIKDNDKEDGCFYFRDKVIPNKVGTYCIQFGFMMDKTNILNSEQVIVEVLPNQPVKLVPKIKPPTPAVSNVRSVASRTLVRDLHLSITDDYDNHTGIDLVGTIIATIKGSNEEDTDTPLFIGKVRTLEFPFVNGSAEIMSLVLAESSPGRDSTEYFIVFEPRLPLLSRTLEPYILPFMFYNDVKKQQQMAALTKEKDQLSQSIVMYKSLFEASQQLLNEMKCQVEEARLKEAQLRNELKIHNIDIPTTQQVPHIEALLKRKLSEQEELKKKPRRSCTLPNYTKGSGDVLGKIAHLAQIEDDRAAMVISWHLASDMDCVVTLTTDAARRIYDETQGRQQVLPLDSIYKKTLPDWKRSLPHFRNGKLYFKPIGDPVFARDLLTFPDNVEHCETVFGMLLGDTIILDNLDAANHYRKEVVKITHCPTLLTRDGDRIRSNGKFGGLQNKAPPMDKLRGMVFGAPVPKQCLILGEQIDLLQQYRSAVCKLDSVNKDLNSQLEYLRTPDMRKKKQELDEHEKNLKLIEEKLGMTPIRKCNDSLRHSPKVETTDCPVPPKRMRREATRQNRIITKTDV

Target: FLAG-tagged SMCHD1 wild type, expressed in 293T cells (human) (UniProt A6NHR9)
Test: co-IP

B1: HA-tagged LRIF1, expressed in 293T cells (protein, UniProt Q5T3J3 1-769)
chain: MSNNLRRVFLKPAEENSGNASRCVSGCMYQVVQTIGSDGKNLLQLLPIPKSSGNLIPLVQSSVMSDALKGNTGKPVQVTFQTQISSSSTSASVQLPIFQPASSSNYFLTRTVDTSEKGRVTSVGTGNFSSSVSKVQSHGVKIDGLTMQTFAVPPSTQKDSSFIVVNTQSLPVTVKSPVLPSGHHLQIPAHAEVKSVPASSLPPSVQQKILATATTSTSGMVEASQMPTVIYVSPVNTVKNVVTKNFQNIYPKPVTEIAKPVILNTTQIPKNVATETQLKGGQHSQAAPVKWIFQDNLQPFTPSLVPVKSSNNVASKILKTFVDRKNLGDNTINMPPLSTIDPSGTRSKNMPIKDNALVMFNGKVYLLAKKGTDVLPSQIDQQNSVSPDTPVRKDTLQTVSSSPVTEISREVVNIVLAKSKSSQMETKSLSNTQLASMANLRAEKNKVEKPSPSTTNPHMNQSSNYLKQSKTLFTNPIFPVGFSTGHNAPRKVTAVIYARKGSVLQSIEKISSSVDATTVTSQQCVFRDQEPKIHNEMASTSDKGAQGRNDKKDSQGRSNKALHLKSDAEFKKIFGLTKDLRVCLTRIPDHLTSGEGFDSFSSLVKSGTYKETEFMVKEGERKQQNFDKKRKAKTNKKMDHIKKRKTENAYNAIINGEANVTGSQLLSSILPTSDVSQHNILTSHSKTRQEKRTEMEYYTHEKQEKGTLNSNAAYEQSHFFNKNYTEDIFPVTPPELEETIRDEKIRRLKQVLREKEAALEEMRKKMHQK
binding: binds
